The values that follow come from publication PMC10944510.

The chains behind the UniProt entries cited, without tags or fusion partners.
UniProt Q5TZA2: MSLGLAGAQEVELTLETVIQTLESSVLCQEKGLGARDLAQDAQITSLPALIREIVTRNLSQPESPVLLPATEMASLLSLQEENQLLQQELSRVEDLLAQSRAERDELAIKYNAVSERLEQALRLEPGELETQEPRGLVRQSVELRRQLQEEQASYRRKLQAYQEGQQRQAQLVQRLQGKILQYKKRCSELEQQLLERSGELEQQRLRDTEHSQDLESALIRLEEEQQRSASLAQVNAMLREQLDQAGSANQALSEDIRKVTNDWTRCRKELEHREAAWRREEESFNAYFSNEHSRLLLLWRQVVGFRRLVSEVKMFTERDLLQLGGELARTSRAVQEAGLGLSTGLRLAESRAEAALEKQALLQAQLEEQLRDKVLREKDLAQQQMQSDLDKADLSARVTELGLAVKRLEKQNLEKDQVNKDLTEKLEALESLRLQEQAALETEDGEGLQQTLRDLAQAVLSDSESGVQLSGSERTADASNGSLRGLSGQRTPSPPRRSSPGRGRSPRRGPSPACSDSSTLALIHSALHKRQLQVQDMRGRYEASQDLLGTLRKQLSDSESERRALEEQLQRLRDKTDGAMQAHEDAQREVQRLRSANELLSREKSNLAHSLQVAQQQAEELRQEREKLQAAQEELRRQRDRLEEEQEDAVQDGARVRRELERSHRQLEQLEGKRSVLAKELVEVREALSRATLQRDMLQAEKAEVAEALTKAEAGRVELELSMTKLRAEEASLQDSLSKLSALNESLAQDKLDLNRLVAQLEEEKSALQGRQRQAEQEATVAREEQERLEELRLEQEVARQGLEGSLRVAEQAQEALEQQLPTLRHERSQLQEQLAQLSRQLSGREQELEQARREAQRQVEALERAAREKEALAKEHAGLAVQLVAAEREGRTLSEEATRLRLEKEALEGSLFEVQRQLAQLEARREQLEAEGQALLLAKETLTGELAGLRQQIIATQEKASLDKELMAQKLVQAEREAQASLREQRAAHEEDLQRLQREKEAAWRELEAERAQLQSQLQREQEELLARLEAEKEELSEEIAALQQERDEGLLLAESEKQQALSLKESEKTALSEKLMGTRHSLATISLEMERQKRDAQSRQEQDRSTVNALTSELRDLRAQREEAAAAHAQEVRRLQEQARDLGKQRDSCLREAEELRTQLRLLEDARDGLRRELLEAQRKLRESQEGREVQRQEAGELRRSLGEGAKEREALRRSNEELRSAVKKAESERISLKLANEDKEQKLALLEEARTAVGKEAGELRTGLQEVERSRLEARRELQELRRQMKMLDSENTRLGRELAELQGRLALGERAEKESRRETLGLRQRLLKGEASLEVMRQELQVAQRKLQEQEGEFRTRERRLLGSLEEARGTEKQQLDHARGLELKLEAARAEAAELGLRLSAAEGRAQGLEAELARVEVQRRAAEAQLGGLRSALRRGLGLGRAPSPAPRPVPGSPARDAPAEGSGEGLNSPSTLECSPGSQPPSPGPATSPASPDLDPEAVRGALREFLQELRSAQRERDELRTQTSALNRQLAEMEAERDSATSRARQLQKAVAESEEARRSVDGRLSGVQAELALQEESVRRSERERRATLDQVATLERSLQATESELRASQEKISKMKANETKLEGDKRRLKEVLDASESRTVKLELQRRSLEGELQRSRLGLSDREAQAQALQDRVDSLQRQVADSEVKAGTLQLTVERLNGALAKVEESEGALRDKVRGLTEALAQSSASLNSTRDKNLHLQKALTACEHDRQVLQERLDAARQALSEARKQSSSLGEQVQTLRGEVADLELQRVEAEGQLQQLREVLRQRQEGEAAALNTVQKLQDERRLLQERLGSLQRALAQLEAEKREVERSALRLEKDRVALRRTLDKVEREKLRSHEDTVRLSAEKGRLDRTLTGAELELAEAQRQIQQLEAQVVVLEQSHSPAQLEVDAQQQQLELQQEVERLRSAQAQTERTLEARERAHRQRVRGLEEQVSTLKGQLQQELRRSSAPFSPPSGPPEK

Results are given in words; binding and its absence hold for the method and conditions named. Binding seen in cells or lysates may run through a third protein. A yes stands for co-enrichment or nearness to the bait. Other partners may have been found. Where a sequence is shown, tags or fusion partners need not be part of it.

This assay deals with T1, FLAG-TurboID-Nek2A (UniProt P51955).
T1 sequence: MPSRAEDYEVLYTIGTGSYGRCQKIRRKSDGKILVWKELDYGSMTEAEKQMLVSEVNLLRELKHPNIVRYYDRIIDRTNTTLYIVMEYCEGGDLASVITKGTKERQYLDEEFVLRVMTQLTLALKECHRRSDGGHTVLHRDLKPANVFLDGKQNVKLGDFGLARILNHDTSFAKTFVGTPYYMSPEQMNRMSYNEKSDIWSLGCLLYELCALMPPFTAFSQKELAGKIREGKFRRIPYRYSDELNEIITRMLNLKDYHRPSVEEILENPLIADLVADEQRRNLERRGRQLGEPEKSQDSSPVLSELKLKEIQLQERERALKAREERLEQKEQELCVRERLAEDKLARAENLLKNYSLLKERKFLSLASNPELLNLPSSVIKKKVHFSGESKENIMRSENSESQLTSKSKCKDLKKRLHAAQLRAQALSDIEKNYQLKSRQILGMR
Nature of the assay: proximity labelling; FLAG-TurboID-Nek2A (WT or K37R) expressed in cells; after biotinylation lysates incubated overnight with streptavidin beads at 4 °C, on-bead trypsin digestion, mass spectrometry (Q Exactive HF; MaxQuant LFQ).

For the molecule “Rootletin (CROCC) (from UniProt Q5TZA2 1-2017)”, the binding result is “binds”.

B1: LRRC45 (protein, UniProt Q96CN5 1-670)
chain: MEEFRRSYSRLCRESGAEPQEAVLQQLHQLPRGRLDLATQSLTVETCRALGKLLPRETLCTELVLSDCMLSEEGATLLLRGLCANTVLRFLDLKGNNLRAAGAEALGKLLQQNKSIQSLTLEWNSLGTWDDAFATFCGGLAANGALQRLDLRNNQISHKGAEELALALKGNTTLQQLDLRWNNVGLLGGRALMNCLPSNRTLWRLDLAGNNIPGDVLRAVEQAMGHSQDRLTTFQENQARTHVLSKEVQHLREEKSKQFLDLMETIDKQREEMAKSSRASAARVGQLQEALNERHSIINALKAKLQMTEAALALSEQKAQDLGELLATAEQEQLSLSQRQAKELKLEQQEAAERESKLLRDLSAANEKNLLLQNQVDELERKFRCQQEQLFQTRQEMTSMSAELKMRAIQAEERLDMEKRRCRQSLEDSESLRIKEVEHMTRHLEESEKAMQERVQRLEAARLSLEEELSRVKAAALSERGQAEEELIKAKSQARLEEQQRLAHLEDKLRLLAQARDEAQGACLQQKQVVAEAQTRVSQLGLQVEGLRRRLEELQQELSLKDQERVAEVSRVRVELQEQNGRLQAELAAQEALREKAAALERQLKVMASDHREALLDRESENASLREKLRLREAEIARIRDEEAQRASFLQNAVLAYVQASPVRTLSPPK
As to B1, the binding result is recorded as “binds”.

B2: KIF2C (protein, UniProt Q99661 1-725)
chain: MAMDSSLQARLFPGLAIKIQRSNGLIHSANVRTVNLEKSCVSVEWAEGGATKGKEIDFDDVAAINPELLQLLPLHPKDNLPLQENVTIQKQKRRSVNSKIPAPKESLRSRSTRMSTVSELRITAQENDMEVELPAAANSRKQFSVPPAPTRPSCPAVAEIPLRMVSEEMEEQVHSIRGSSSANPVNSVRRKSCLVKEVEKMKNKREEKKAQNSEMRMKRAQEYDSSFPNWEFARMIKEFRATLECHPLTMTDPIEEHRICVCVRKRPLNKQELAKKEIDVISIPSKCLLLVHEPKLKVDLTKYLENQAFCFDFAFDETASNEVVYRFTARPLVQTIFEGGKATCFAYGQTGSGKTHTMGGDLSGKAQNASKGIYAMASRDVFLLKNQPCYRKLGLEVYVTFFEIYNGKLFDLLNKKAKLRVLEDGKQQVQVVGLQEHLVNSADDVIKMIDMGSACRTSGQTFANSNSSRSHACFQIILRAKGRMHGKFSLVDLAGNERGADTSSADRQTRMEGAEINKSLLALKECIRALGQNKAHTPFRESKLTQVLRDSFIGENSRTCMIATISPGISSCEYTLNTLRYADRVKELSPHSGPSGEQLIQMETEEMEACSNGALIPGNLSKEEEELSSQMSSFNEAMTQIRELEEKAMEELKEIIQQGPDWLELSEMTEQPDYDLETFVNKAESALAQQAKHFSALRDVIKALRLAMQLEEQASRQISSKKRPQ
In the case of B2, the binding result is reported as “binds”.
